From the supplement of paper PMC10849652
The other results are listed elsewhere or left out.

Protein sequences, listed by entry. Tags and fused reporters are not part of them. Lines headed by an entry give the natural chain unless they say otherwise; changes in a name come on top.
UniProt Q7RTP0: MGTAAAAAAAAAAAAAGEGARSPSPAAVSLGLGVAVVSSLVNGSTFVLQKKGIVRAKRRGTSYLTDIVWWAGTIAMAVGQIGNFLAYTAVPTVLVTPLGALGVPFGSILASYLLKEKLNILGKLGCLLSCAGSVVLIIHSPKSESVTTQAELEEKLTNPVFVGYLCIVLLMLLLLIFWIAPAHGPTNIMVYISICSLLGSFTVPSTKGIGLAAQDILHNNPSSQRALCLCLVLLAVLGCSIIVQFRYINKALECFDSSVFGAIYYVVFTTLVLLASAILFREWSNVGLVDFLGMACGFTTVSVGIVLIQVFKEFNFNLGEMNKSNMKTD
UniProt P49821, whole entry, looked up: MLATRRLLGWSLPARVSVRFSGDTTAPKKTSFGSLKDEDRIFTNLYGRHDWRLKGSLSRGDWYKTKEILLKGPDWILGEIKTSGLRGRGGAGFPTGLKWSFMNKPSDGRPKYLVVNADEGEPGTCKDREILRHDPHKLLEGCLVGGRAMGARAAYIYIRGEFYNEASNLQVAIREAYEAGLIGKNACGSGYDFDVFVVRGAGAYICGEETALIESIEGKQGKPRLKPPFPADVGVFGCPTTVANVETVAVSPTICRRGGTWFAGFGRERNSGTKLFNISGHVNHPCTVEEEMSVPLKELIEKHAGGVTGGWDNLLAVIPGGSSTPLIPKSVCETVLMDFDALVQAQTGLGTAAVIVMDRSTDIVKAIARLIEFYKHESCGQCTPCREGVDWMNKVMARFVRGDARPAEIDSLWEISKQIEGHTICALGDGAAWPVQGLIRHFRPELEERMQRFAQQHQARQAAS
UniProt Q8IXH7, whole entry, looked up: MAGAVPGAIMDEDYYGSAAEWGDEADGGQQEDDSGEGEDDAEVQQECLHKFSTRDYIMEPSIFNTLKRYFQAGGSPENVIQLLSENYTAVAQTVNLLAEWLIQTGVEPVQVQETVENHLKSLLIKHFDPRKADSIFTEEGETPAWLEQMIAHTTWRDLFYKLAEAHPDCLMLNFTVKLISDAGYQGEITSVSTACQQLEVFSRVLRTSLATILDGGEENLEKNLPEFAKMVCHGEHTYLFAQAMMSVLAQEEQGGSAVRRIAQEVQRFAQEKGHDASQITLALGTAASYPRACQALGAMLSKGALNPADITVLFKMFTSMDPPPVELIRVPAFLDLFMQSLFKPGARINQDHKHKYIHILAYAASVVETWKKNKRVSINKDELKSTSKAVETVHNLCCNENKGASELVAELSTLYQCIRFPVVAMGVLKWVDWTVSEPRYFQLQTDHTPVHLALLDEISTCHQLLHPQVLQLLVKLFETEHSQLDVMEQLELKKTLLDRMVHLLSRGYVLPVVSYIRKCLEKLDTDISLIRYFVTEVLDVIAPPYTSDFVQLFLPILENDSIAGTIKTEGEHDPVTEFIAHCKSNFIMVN
UniProt Q92597: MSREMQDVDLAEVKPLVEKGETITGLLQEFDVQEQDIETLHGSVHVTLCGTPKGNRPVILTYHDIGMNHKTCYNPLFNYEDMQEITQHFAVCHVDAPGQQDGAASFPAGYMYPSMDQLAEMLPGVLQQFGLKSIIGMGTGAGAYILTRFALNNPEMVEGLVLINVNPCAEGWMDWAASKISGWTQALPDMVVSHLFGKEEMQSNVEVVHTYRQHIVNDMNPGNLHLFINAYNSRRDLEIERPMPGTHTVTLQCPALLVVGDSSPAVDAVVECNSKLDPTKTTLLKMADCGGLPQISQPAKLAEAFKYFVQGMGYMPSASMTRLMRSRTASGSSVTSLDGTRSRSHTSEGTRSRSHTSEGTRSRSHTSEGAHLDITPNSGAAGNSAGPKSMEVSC
UniProt P23511, whole entry, looked up: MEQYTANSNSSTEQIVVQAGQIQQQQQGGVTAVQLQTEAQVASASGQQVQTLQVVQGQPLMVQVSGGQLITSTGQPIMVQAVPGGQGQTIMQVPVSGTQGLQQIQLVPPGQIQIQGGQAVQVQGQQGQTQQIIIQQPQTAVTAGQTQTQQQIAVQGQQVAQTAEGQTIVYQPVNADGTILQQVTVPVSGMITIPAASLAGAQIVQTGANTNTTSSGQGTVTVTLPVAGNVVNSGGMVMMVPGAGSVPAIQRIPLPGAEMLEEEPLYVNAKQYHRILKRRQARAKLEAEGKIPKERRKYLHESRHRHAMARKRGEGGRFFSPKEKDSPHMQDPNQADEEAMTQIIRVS
UniProt O95299, whole entry, looked up: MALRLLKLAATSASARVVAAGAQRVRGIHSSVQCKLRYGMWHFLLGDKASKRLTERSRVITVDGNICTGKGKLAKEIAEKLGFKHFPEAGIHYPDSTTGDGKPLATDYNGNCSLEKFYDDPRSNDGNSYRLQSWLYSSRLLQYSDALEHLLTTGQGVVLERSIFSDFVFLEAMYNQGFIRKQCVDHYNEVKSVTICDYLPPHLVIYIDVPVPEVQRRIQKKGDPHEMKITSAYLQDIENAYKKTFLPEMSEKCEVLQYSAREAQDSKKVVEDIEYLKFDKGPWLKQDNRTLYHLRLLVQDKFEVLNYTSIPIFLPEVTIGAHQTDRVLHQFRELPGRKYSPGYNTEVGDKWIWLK
UniProt P19838: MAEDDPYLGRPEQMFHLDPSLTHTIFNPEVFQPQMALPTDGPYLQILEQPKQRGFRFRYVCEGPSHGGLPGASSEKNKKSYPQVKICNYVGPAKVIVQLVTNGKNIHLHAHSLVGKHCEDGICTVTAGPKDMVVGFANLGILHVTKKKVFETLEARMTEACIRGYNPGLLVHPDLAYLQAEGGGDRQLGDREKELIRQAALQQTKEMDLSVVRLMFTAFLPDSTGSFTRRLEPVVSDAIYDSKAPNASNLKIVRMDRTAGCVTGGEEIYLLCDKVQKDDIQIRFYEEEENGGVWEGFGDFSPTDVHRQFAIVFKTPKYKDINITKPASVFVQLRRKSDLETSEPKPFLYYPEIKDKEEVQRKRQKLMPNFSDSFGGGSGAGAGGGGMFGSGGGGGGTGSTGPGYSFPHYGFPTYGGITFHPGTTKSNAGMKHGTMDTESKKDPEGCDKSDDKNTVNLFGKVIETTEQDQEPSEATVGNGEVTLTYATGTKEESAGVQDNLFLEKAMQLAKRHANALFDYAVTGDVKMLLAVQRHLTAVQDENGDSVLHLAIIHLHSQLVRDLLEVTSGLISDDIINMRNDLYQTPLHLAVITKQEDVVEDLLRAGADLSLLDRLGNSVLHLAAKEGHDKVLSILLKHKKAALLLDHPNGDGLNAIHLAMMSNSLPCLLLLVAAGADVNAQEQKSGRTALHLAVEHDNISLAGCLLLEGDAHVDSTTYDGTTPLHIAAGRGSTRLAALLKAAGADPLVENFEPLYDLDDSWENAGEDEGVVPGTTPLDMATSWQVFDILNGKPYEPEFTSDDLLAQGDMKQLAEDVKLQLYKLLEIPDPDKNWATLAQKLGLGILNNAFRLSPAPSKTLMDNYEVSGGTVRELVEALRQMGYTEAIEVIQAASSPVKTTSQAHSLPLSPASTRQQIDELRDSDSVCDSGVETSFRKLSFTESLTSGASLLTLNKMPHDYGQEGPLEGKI
UniProt O75438, whole entry, looked up: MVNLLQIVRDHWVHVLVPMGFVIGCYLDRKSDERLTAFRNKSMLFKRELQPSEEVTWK
UniProt Q9Y221: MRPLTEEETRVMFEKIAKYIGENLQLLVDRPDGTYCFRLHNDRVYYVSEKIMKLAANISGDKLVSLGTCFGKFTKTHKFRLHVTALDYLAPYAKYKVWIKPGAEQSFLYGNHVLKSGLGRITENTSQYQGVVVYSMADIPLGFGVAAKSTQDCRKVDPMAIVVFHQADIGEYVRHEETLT

Assays:
Assay in all cases: log2 fold change, soluble protein after heating vs DMSO (PISA); higher = thermal stabilisation; K562 lysate, 10 uM; active = over 0.2 and 3.5 SD of the protein, either way, in both replicates (recomputed)
[1] = compound: NCC(=O)Nc1ccc(-n2nc(C(F)(F)F)cc2-c2ccc3c(ccc4ccccc43)c2)cc1
Outline: (§1)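 Log-two fold change in thermal stability relative to solvent controls is reported from duplicates. For each sample, crude K562 extract from dounce-homogenised pellets in PBS pH 7.4 with 1 mM MgCl2, at 1 mg/mL protein, was treated with 10 μM compound for 30 min. Aliquots heated for 3 min across 48°C-58°C were pooled, brought to 0.5% NP-40 at 4°C and cleared at 21,000xg for 90 min. The supernatant was quantified by TMTpro 16plex LC-MS/MS with channel sums equalised.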

vorinostat = compound: O=C(CCCCCCC(=O)Nc1ccccc1)NO [vorinostat]
Outline: as §1

silmitasertib = compound: O=C(O)c1ccc2c(c1)nc(Nc1cccc(Cl)c1)c1ccncc12 [silmitasertib]
Outline: as §1

[2] = compound: O=C1NC(=O)C(c2cnc3ccccn23)=C1c1cn2c3c(cc(F)cc13)CN(C(=O)N1CCCCC1)CC2
Outline: as §1

entospletinib = compound: c1cn2cc(-c3ccc4cn[nH]c4c3)nc(Nc3ccc(N4CCOCC4)cc3)c2n1 [entospletinib]
Outline: as §1

NIPA1 (UniProt Q7RTP0)
log2 fold change [1]: inactive: 0.048 | log2 fold change (vorinostat): inactive: -0.093 | log2 fold change (silmitasertib): inactive: 0.028 | log2 fold change [2]: inactive: 0.057

NDUFV1 (UniProt P49821)
log2 fold change [1]: inactive: 0.035 | log2 fold change (vorinostat): inactive: 0.051 | log2 fold change (silmitasertib): inactive: 0.031 | log2 fold change [2]: inactive: 0.031 | log2 fold change (entospletinib): inactive: -0.006

NELFCD (UniProt Q8IXH7)
log2 fold change [1]: inactive: 0.023 | log2 fold change (vorinostat): active: -0.322 | log2 fold change (silmitasertib): inactive: 0.049 | log2 fold change [2]: inactive: -0.005 | log2 fold change (entospletinib): inactive: 0.032

NDRG1 (UniProt Q92597)
log2 fold change [1]: inactive: -0.099 | log2 fold change (vorinostat): inactive: -0.019 | log2 fold change (silmitasertib): inactive: 0.12 | log2 fold change [2]: inactive: -0.059

NFYA (UniProt P23511)
log2 fold change [1]: inactive: -0.007 | log2 fold change (vorinostat): inactive: 0.099 | log2 fold change (silmitasertib): inactive: -0.033 | log2 fold change [2]: inactive: -0.053 | log2 fold change (entospletinib): inactive: -0.012

NDUFA10 (UniProt O95299)
log2 fold change [1]: inactive: -0.033 | log2 fold change (vorinostat): inactive: -0.099 | log2 fold change (silmitasertib): inactive: 0.096 | log2 fold change [2]: inactive: -0.013 | log2 fold change (entospletinib): inactive: -0.022

NFKB1 isoform 2 (UniProt P19838)
log2 fold change [1]: inactive: 0.008 | log2 fold change (vorinostat): inactive: -0.198 | log2 fold change (silmitasertib): inactive: 0.01 | log2 fold change [2]: inactive: -0.041 | log2 fold change (entospletinib): inactive: -0.033

NDUFB1 (UniProt O75438)
log2 fold change [1]: inactive: 0.022 | log2 fold change (vorinostat): inactive: 0.029 | log2 fold change (silmitasertib): inactive: 0.074 | log2 fold change [2]: inactive: 0.187

NIP7 (UniProt Q9Y221)
log2 fold change [1]: inactive: -0.037 | log2 fold change (vorinostat): inactive: -0.023 | log2 fold change (silmitasertib): inactive: 0.035 | log2 fold change [2]: inactive: -0.045 | log2 fold change (entospletinib): inactive: -0.014
